Results as given in patent US8299302B2 (priority 2007, dated 2012).
Some entries share one result that the patent states for a list of compounds.

Tested on: Alternaria solani
Assay: Alternaria test (tomato) / protective
Type: in vivo
Conditions: tomato plants, protective spray, active compound concentration 500 ppm, evaluation 7 days after inoculation

| SMILES | efficacy |
| --- | --- |
| CCN(C)C=Nc1cc(C)c(Oc2ccc(-c3ccc(F)cc3)cc2)cc1C [Compound 11] | ≥ 70% |
| CCN(C)C=Nc1cc(C)c(Oc2ccc(-c3ccccc3OC)cc2)cc1C [Compound 19] | ≥ 70% |
